# From the supplement of paper PMC5407854, “Inhibitor of ppGalNAc-T3-mediated O-glycosylation blocks cancer cell invasiveness and lowers FGF23 levels” (eLife, 2017)
# Some of the results follow. Small differences around the control level are noise.
# Test system: ppGalNAc-T2 sensor
# Assay: T2 sensor activation Q score (MG/GFP ratio z-score vs DMSO controls) (SD units); higher = more sensor activation (inhibition of ppGalNAc-T2 glycosylation)
# Details: HEK293 sensor cells; 10 µM; 6 h
# Experimental: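 Cells were treated with compound at 10 uM for 6 h, then MG/GFP ratio was read by flow cytometry (10,000 cells per well, duplicate wells). Q = (R - R_neg)/SD_neg relative to DMSO vehicle controls; the signal rises when the glycosyltransferase is inhibited.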
row,Structure (SMILES),T2 sensor activation Q score
1,CCOc1cccc(N2C(=O)CC(N3CCC(C(N)=O)CC3)C2=O)c1 (stereo not given),0.32
2,CN(CCC(N)=O)Cc1ccccc1,0.275
3,O=Cc1ccc(S(=O)(=O)c2ccc(Cl)cc2)cc1,0.71
4,COc1ccccc1N1CCN(Cc2ccc(C(=O)O)cc2)CC1,0.3
5,O=C(COc1ccc(Cl)cc1Cl)Nc1cccc(Cl)c1Cl,0.67
6,COc1ccc(CN2CCN(C/C=C/c3ccccc3)CC2)c(O)c1,-0.83
7,C/C(=C\c1ccccc1)CN1CC(C)OC(C)C1 (stereo not given),0.57
8,O=C(Nc1ccc(-c2ccc([N+](=O)[O-])cc2)cc1)c1ccco1,-0.855
9,Cc1ccc(NC2=C([N+](=O)[O-])CS(=O)(=O)C2)cc1,0.88
10,Cc1ccc(S(=O)(=O)c2ccccc2)cc1S(N)(=O)=O,0.08
11,Fc1ccc(CN2CCc3ccccc3C2)c(F)c1,-0.375
12,Cc1ccc(NC(=O)c2cc(N3C(=O)CCC3=O)ccc2N2CCOCC2)cc1Cl,-0.375
13,Cc1ccc2oc(-c3cccc(NC(=O)c4ccccc4I)c3)nc2c1,-0.155
14,CCN1CCN(C(=O)CCCOc2ccc(Cl)cc2Cl)CC1,0.005
15,CC(C)(C)OC(=O)N1CCCC1C(=O)O (stereo not given),-0.835
16,OCCSc1ccc(-c2ccc(SCCO)cc2)cc1,-0.77
17,CCc1ccccc1NC(=O)c1ccc(-c2ccccc2)cc1,-0.16
18,CCN(CC)C(=O)C1CCCN(Cc2cccc(OC)c2OC)C1 (stereo not given),-0.4
19,O=C(COc1ccccc1O)NO,-1.24
20,CC(C)CNC(=O)c1ccc(Br)o1,0.94

# Ten entries from above, sorted by SMILES length, falling:
row,Structure (SMILES),T2 sensor activation Q score
12,Cc1ccc(NC(=O)c2cc(N3C(=O)CCC3=O)ccc2N2CCOCC2)cc1Cl,-0.375
8,O=C(Nc1ccc(-c2ccc([N+](=O)[O-])cc2)cc1)c1ccco1,-0.855
1,CCOc1cccc(N2C(=O)CC(N3CCC(C(N)=O)CC3)C2=O)c1 (stereo not given),0.32
9,Cc1ccc(NC2=C([N+](=O)[O-])CS(=O)(=O)C2)cc1,0.88
4,COc1ccccc1N1CCN(Cc2ccc(C(=O)O)cc2)CC1,0.3
17,CCc1ccccc1NC(=O)c1ccc(-c2ccccc2)cc1,-0.16
7,C/C(=C\c1ccccc1)CN1CC(C)OC(C)C1 (stereo not given),0.57
20,CC(C)CNC(=O)c1ccc(Br)o1,0.94
2,CN(CCC(N)=O)Cc1ccccc1,0.275
19,O=C(COc1ccccc1O)NO,-1.24

# More compounds

row,Structure (SMILES),T2 sensor activation Q score
1,O=C(NCCc1ccccc1)c1ccco1,-1.7
2,OCCOc1ccccc1OCCO,0.605
3,CN1CCCN(Cc2ccc(F)cc2)CC1,0.21
4,COc1ccc(-c2noc(-c3cccc(OC)c3)n2)cc1,0.665
5,O=[N+]([O-])C1=C(Nc2ccccc2)CS(=O)(=O)C1,-0.835
6,NC(=O)c1ccccc1NC(=O)c1ccc(-c2ccccc2)cc1,-0.45
7,c1ccc(Oc2cccc(CN3CCSCC3)c2)cc1,0.325
8,Cc1cc(C)n(C2CC(=O)N(c3cccc(Cl)c3)C2=O)n1 (stereo not given),-0.605
9,NC(=O)C(=O)Nc1nc(-c2ccccc2)cs1,-0.74
10,CCN(C(=O)c1ccco1)c1ccccc1,-0.52
11,O=C([C@@H]1C[C@@H]1c1ccccc1)N1CCOCC1,0.085
12,Cc1ccc(NC(=O)[C@@H]2C3C=CC(C3)[C@@H]2C(=O)O)c(C)c1 (stereo not given in full),-1.94
13,Cc1cccc(NC(=O)Cc2ccc(-c3ccccc3)cc2)c1C,-0.035
14,Cc1ccc(Nc2cc(-n3cccn3)ncn2)cc1,-0.75
15,Cc1ccc2c(N)c(C(=O)c3ccc(Cl)cc3)sc2n1,-0.225
16,O=[N+]([O-])c1ccc(CN2CCN(c3ncccn3)CC2)cc1,1.12
17,COc1ccc(NCc2cccnc2)cc1,-0.985
18,CC1(C)CC(=O)C=C(Nc2ccccc2N)C1,0.015
19,COc1cc2c(cc1OC)CN(Cc1c(F)cccc1Cl)CC2,-0.24
20,Cc1nn(C)c(C)c1NC(=O)c1ccnn1C,0.575
